Reference: US20210230266A1
No constants are given. Whether binding was seen depends on the method and setting. Some entries that bind do so weakly or less than the wild type.

Legend:
Human IL-11 (human) = target: T1, Human IL-11 (human) (UniProt P20809); assay: SPR, BIAcore T200
T1 sequence: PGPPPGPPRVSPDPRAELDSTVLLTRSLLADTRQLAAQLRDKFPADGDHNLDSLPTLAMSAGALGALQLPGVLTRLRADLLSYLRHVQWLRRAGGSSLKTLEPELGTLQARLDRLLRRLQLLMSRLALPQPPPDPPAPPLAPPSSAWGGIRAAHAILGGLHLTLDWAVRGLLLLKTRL

Mouse IL-11 (mouse) = target: T2, Mouse IL-11 (mouse) (UniProt P47873); assay: SPR, BIAcore T200
T2 sequence (looked up): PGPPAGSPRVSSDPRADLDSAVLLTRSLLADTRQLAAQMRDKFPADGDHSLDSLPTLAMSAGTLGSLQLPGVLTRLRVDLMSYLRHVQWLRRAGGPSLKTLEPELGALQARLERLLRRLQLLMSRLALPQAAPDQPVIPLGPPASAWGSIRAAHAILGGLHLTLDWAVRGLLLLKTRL

B1: BSN-3C6 (antibody, V domains shown)
VH: EVQLQQSGPELVKPGASVKIPCKASGYTFTDYNMDWVKQSHGKSLEWIGDINPHNGGPIYNQKFTGKATLTVDKSSSTAYMELRSLTSEDTAVYYCARGELGHWYFDVWGTGTTVTVSS
VL: DIVLTQSPASLAVSLGQRATISCRASKSVSTSGYSYIHWYQQKPGQPPKLLIYLASNLDSGVPARFSGSGSGTDFTLNIHPVEEEDAATYYCQHSRDLPPTFGGGTKLEIK
binding (Human IL-11 (human)): binds
binding (Mouse IL-11 (mouse)): binds
